Data taken from ChEMBL document CHEMBL3988442, “University of Dundee, Small-Polar-MMV Screening Library” (2021).

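Whole-parasite assay of Trypanosoma brucei over 72 hours; the read-out is not stated. Concentration: 30 µM. Direction is inferred from retests: higher values go with stronger inhibition. Values scatter widely below zero; nearly all retest evidence comes from the higher of the two concentrations used. Of about 64,000 compounds tested this way, about 940 (1.5%) reached 50% or more in at least one test.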

The filed quantity is “Percent Effect” (%).
The record does not define 0% and 100%; most values in the screen are far below 50% and negative numbers occur (in some assays of this library far below -100).
The compounds are a random part of those screened.

{"compound": "O=C(C1CCCC1)N1CC(c2nc(Cc3ccccc3)no2)C1", "Percent Effect": -13.69}
{"compound": "Cc1cccc(CC2CCCN(C(=O)Cc3csc(C)n3)C2)n1", "stereo": "stereo not given", "Percent Effect": -9.191}
{"compound": "N#CCC(=O)NCc1nnc2n1CCN(Cc1ccsc1)C2", "Percent Effect": -19.38}
{"compound": "O=C(CCCNC(=O)c1cnccn1)Nc1ncc[nH]1", "Percent Effect": -33.16}
{"compound": "CCOCCN1CCN(CC(O)c2ccc(C)c(C)c2)CC1", "stereo": "stereo not given", "Percent Effect": -0.3361}
{"compound": "CN1CCN(CC2CC2)C(=O)c2cnc(N3CC[C@@H](O)C3)nc21", "Percent Effect": -28.28}
{"compound": "CN(C)c1cc(CNC(=O)c2ccc(Br)cc2F)ccn1", "Percent Effect": -9.654}
{"compound": "Cc1cc(CSCc2cc(C)on2)on1", "Percent Effect": -6.402}
{"compound": "COCC1CCN(C(=O)c2cccc(S(=O)(=O)NCC3(C)COC3)c2)C1", "stereo": "stereo not given", "Percent Effect": 9.644}
{"compound": "COCc1nc(CN2CC(=O)N(C)c3ccccc3C2=O)no1", "Percent Effect": -9.358}
{"compound": "Cc1ccccc1OCCN1CCn2c(C)nnc2C1", "Percent Effect": -18.5}
{"compound": "Cc1cc(CNCC2(O)CCOCC2)ccc1Br", "Percent Effect": -37.18}
{"compound": "CN1CCOC[C@H]1c1nc(-c2cccnc2)c[nH]1", "Percent Effect": -6.891}
{"compound": "CC(=O)N1CCN(Cc2ccsc2)CC2(CC(=O)N(C)C2)C1.O=C(O)C(F)(F)F", "stereo": "stereo not given", "Percent Effect": -65.69}
{"compound": "Cc1cc(C(=O)N2CCCC(O)(CN3CCCC3)C2)ccc1Cl", "stereo": "stereo not given", "Percent Effect": 5.597}
{"compound": "CSCCC(=O)N1CCN(CC(C)(C)O)CC1", "Percent Effect": -53.06}
{"compound": "O=C(O)C(F)(F)F.[H][C@@]12CCN(S(C)(=O)=O)CC[C@]1(C(=O)Nc1ccccc1)CCN2CC", "Percent Effect": -16.54}
{"compound": "Cc1ccc2c(c1)[C@@H](CC(=O)N(C)C)CCO2", "Percent Effect": -7.754}
{"compound": "CNc1nc(C(=O)N2CCC3(CCCN(CC4CC4)C3=O)C2)cs1", "stereo": "stereo not given", "Percent Effect": -63.8}
{"compound": "CCOC(=O)Cc1cs/c(=N/C(=O)COc2cnc(C)cc2O)[nH]1", "Percent Effect": -52.4}
{"compound": "O=C(Nc1ccccc1OCc1ccccn1)NC1CCOCC1", "Percent Effect": -34.4}
{"compound": "Cc1noc(C)c1S(=O)(=O)N1CCc2nc(C3CCNCC3)ncc2C1.Cl", "Percent Effect": 0.03766}
{"compound": "c1cc(-c2nc(C3CCN(Cc4ccsc4)CC3)no2)ccn1", "Percent Effect": -65.58}
{"compound": "COCCC(=O)NCc1cccnc1-n1cnc2ccccc21", "Percent Effect": -14.92}
{"compound": "O=C(CCn1ccc(=O)[nH]c1=O)N1CCC(Oc2ncccc2Cl)CC1", "Percent Effect": 7.841}
{"compound": "O=C(Nc1cccnc1)C1CCCN(c2cc(-n3cccn3)ncn2)C1", "stereo": "stereo not given", "Percent Effect": 5.467}
{"compound": "CC(Cn1cncn1)NC(=O)NCc1csc(N(C)C)n1", "stereo": "stereo not given", "Percent Effect": 34.43}
{"compound": "NC(=O)CN1CCC(C(=O)NCc2ccc3c(c2)OCCCO3)CC1", "Percent Effect": -41.77}
{"compound": "[H][C@]12CC[C@]([H])(CN(C(C)=O)C1)N(S(=O)(=O)c1ccc(F)cc1Cl)C2", "Percent Effect": -51.58}
{"compound": "O=C(CSc1ccc2c(c1)OCCO2)NS(=O)(=O)C1CCCCC1", "Percent Effect": -20.66}
{"compound": "CC(C)(C)c1n[nH]c(C2CN(CCNC3CCCCC3)CCO2)n1", "stereo": "stereo not given", "Percent Effect": -21.26}
{"compound": "Cc1nc2ccccc2nc1NCc1nnc2n1CCC2", "Percent Effect": -2.335}
{"compound": "c1ccc(Cc2noc(CN3CCCCC3Cn3cccn3)n2)cc1", "stereo": "stereo not given", "Percent Effect": -3.587}
{"compound": "CS(=O)(=O)NC[C@H]1Cn2c(-c3ccc(Cl)cc3)cnc2CO1", "Percent Effect": -2.521}
{"compound": "Cc1nc(O)cc(CN2C[C@H](NS(=O)(=O)N(C)C)[C@@H](C3CC3)C2)n1", "Percent Effect": -41.38}
{"compound": "COc1cc(CNc2ccc(C)c(Cl)c2)ccc1OCC(N)=O", "Percent Effect": 23.9}
{"compound": "COC1CCC(N(C)c2ccnc(N(C)C)n2)CC1", "stereo": "stereo not given", "Percent Effect": 3.333}
{"compound": "N#CC1COCCN1C(=O)c1ccc2[nH]ccc2c1", "stereo": "stereo not given", "Percent Effect": -33.57}
{"compound": "CC(C)c1nc(/C=C/c2cnn(-c3ccccc3)c2)ncc1C(=O)O", "Percent Effect": -5.617}
{"compound": "CCCNC(=O)Cn1c(C)nn(C(C)(C)C)c1=O", "Percent Effect": -30.03}
{"compound": "CCc1cc(NCCc2cc(F)cc(F)c2)n2nccc2n1", "Percent Effect": -65.29}
{"compound": "c1cc(-c2ccc3c(c2)C2(CC3)CCN(c3nncs3)CC2)ccn1", "Percent Effect": -17.59}
{"compound": "Cc1nc(CNC(C(=O)N2CCOCC2)C(C)C)no1", "stereo": "stereo not given", "Percent Effect": -17.52}
{"compound": "O=C(c1cccnc1)N1CCOC(c2ccc(-c3cncnc3)cn2)C1", "stereo": "stereo not given", "Percent Effect": -2.068}
{"compound": "CC(C)(CO)CNC(=O)c1ccnn1-c1ccc2ccccn12", "Percent Effect": -58.47}
{"compound": "CCn1c(CN(C)Cc2cnc(C)s2)nc2cc(F)ccc21", "Percent Effect": 1.497}
{"compound": "Cc1ccc(CCNC(=O)CC2COCCN2S(=O)(=O)N(C)C)s1", "stereo": "stereo not given", "Percent Effect": -42.83}
{"compound": "CCC(C(=O)NCc1csc(N2CCOCC2)n1)n1cccn1", "stereo": "stereo not given", "Percent Effect": -11.78}
{"compound": "COc1cccc(CNCCc2cc(F)cc3c2OCOC3)c1OC", "Percent Effect": 19.85}

5 of the entries, repeated:

compound,Percent Effect
COCCC(=O)NCc1cccnc1-n1cnc2ccccc21,-14.92
O=C(C1CCCC1)N1CC(c2nc(Cc3ccccc3)no2)C1,-13.69
Cc1noc(C)c1S(=O)(=O)N1CCc2nc(C3CCNCC3)ncc2C1.Cl,0.03766
N#CC1COCCN1C(=O)c1ccc2[nH]ccc2c1 (stereo not given),-33.57
O=C(Nc1ccccc1OCc1ccccn1)NC1CCOCC1,-34.4